Experimental data published in doi:10.1101/2023.03.23.533910 (bioRxiv, 2023).
Where two headings read alike, the source gives them in different places. These are yes or no findings as the source states them, for the method shown. Binding seen in cells or lysates may run through a third protein. Some entries that bind do so weakly or less than the wild type. For part of these data: Where a sequence is shown, tags or fusion partners need not be part of it.

By UniProt entry, the sequences of proteins in these tests, tags left out.
UniProt Q8RSY1: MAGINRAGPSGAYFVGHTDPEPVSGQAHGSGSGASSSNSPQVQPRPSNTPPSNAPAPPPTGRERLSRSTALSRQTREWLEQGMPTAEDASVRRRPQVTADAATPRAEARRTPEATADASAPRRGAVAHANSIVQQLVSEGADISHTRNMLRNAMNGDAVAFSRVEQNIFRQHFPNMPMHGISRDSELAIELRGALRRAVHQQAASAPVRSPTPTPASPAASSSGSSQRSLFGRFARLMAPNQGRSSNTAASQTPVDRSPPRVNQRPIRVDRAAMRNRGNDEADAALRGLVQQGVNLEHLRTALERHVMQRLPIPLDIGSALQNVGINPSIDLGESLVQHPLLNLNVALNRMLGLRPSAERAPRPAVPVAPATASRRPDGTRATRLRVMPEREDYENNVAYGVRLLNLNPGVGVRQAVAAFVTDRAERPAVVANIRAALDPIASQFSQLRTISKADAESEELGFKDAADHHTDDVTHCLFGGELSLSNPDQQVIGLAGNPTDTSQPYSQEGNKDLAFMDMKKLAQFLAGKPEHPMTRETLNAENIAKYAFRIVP

Tests used:
[1] = molecular target: T1, ADR1-FLAG (Arabidopsis thaliana) (UniProt Q9FW44); test: co-IP
T1 sequence: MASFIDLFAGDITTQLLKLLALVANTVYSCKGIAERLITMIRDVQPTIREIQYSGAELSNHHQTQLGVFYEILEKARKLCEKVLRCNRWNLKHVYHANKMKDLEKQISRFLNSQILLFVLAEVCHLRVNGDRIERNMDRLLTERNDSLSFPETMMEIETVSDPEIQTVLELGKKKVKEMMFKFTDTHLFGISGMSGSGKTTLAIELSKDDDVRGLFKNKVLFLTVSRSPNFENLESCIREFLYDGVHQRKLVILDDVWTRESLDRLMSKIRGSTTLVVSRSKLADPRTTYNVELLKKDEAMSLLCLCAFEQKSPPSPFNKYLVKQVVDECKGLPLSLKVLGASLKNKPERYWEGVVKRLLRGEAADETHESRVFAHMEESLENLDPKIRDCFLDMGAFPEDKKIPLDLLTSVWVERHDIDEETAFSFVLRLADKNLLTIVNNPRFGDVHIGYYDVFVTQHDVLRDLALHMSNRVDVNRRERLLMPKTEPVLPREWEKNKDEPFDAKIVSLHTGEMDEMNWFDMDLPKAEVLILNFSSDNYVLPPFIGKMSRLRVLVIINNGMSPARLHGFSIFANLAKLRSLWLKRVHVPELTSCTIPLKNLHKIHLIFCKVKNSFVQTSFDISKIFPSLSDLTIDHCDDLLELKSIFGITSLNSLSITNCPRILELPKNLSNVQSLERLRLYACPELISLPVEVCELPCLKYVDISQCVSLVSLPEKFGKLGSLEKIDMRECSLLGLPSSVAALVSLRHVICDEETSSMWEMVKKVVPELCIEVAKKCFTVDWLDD

[2] = molecular target: ADR1-cLuc (Arabidopsis thaliana) (UniProt Q9FW44); test: split reporter
[3] = molecular target: T1, ADR1-FLAG (Arabidopsis thaliana); test: co-IP; remark: listed apart in the source

AvrPtoB-HA (from UniProt Q8RSY1 1-553)
binding [1]: binds

AvrPtoB-nLuc (from UniProt Q8RSY1 1-553)
binding [2]: binds

B1: 3xHA-tagged SNC1 (natural protein, Arabidopsis thaliana, UniProt O23530 1-1437, looked up)
chain: MMDTSKDDDMEIASSSGSRRYDVFPSFRGEDVRDSFLSHLLKELRGKAITFIDDEIERSRSIGPELLSAIKESRIAIVIFSKNYASSTWCLNELVEIHKCYTNLNQMVIPIFFHVDASEVKKQTGEFGKVFEETCKAKSEDEKQSWKQALAAVAVMAGYDLRKWPSEAAMIEELAEDVLRKTMTPSDDFGDLVGIENHIEAIKSVLCLESKEARIMVGIWGQSGIGKSTIGRALYSKLSIQFHHRAFITYKSTSGSDVSGMKLRWEKELLSEILGQKDIKIEHFGVVEQRLKQQKVLILLDDVDSLEFLKTLVGKAEWFGSGSRIIVITQDRQLLKAHEIDLIYEVEFPSEHLALTMLCRSAFGKDSPPDDFKELAFEVAKLAGNLPLGLSVLGSSLKGRTKEWWMEMMPRLRNGLNGDIMKTLRVSYDRLHQKDQDMFLYIACLFNGFEVSYVKDLLKDNVGFTMLTEKSLIRITPDGYIEMHNLLEKLGREIDRAKSKGNPGKRRFLTNFEDIHEVVTEKTGTETLLGIRLPFEEYFSTRPLLIDKESFKGMRNLQYLEIGYYGDLPQSLVYLPLKLRLLDWDDCPLKSLPSTFKAEYLVNLIMKYSKLEKLWEGTLPLGSLKEMNLRYSNNLKEIPDLSLAINLEELDLVGCKSLVTLPSSIQNATKLIYLDMSDCKKLESFPTDLNLESLEYLNLTGCPNLRNFPAIKMGCSDVDFPEGRNEIVVEDCFWNKNLPAGLDYLDCLTRCMPCEFRPEQLAFLNVRGYKHEKLWEGIQSLGSLEGMDLSESENLTEIPDLSKATKLESLILNNCKSLVTLPSTIGNLHRLVRLEMKECTGLEVLPTDVNLSSLETLDLSGCSSLRSFPLISTNIVWLYLENTAIEEIPSTIGNLHRLVRLEMKKCTGLEVLPTDVNLSSLETLDLSGCSSLRSFPLISESIKWLYLENTAIEEIPDLSKATNLKNLKLNNCKSLVTLPTTIGNLQKLVSFEMKECTGLEVLPIDVNLSSLMILDLSGCSSLRTFPLISTNIVWLYLENTAIEEIPSTIGNLHRLVKLEMKECTGLEVLPTDVNLSSLMILDLSGCSSLRTFPLISTRIECLYLQNTAIEEVPCCIEDFTRLTVLMMYCCQRLKTISPNIFRLTRLELADFTDCRGVIKALSDATVVATMEDHVSCVPLSENIEYIWDKLYRVAYLQEHFSFRNCFKLDRDARELILRSCFKPVALPGEEIPKYFTYRAYGDSLTVIVPQSSLSQNFLRFKACVVVEPLSKGKGFYPFLKVNVGFNGKQYQKSFSKDAELELCKTDHLFFCSFKFRSEDLPSKLNFNDVEFKFCCSNRIKECGVRLMYVSQEENNQQTTRSEKRMRMTSGTSEEDINLPYGLIVADTGLAALNMELSLGQGEPSSSTSLEGEALCVDYMITEEQDKGIPILFPVSGN
binding [3]: binds
